The target in experiment [1] is T1, Flag-ARG1 (full-length human arginase-1, pcDNA3.1-Flag) (human) (UniProt P05089).
T1 sequence: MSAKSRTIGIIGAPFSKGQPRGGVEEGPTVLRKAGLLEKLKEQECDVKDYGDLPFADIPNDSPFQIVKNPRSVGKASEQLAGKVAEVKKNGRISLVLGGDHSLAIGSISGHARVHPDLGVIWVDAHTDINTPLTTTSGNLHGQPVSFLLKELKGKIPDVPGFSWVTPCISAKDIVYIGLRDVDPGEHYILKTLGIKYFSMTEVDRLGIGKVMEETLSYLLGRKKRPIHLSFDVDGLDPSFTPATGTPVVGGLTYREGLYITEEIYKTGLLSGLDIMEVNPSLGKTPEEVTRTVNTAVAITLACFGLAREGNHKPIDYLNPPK
The experiment is described as follows: co-IP; exogenous co-IP of ARG1 and P300 in HCT116 and RKO cells; IP lysis buffer, primary antibody and Protein A/G magnetic beads overnight at 4 °C.

Chains of the proteins cited; added tags and fusions are not shown.
UniProt Q09472: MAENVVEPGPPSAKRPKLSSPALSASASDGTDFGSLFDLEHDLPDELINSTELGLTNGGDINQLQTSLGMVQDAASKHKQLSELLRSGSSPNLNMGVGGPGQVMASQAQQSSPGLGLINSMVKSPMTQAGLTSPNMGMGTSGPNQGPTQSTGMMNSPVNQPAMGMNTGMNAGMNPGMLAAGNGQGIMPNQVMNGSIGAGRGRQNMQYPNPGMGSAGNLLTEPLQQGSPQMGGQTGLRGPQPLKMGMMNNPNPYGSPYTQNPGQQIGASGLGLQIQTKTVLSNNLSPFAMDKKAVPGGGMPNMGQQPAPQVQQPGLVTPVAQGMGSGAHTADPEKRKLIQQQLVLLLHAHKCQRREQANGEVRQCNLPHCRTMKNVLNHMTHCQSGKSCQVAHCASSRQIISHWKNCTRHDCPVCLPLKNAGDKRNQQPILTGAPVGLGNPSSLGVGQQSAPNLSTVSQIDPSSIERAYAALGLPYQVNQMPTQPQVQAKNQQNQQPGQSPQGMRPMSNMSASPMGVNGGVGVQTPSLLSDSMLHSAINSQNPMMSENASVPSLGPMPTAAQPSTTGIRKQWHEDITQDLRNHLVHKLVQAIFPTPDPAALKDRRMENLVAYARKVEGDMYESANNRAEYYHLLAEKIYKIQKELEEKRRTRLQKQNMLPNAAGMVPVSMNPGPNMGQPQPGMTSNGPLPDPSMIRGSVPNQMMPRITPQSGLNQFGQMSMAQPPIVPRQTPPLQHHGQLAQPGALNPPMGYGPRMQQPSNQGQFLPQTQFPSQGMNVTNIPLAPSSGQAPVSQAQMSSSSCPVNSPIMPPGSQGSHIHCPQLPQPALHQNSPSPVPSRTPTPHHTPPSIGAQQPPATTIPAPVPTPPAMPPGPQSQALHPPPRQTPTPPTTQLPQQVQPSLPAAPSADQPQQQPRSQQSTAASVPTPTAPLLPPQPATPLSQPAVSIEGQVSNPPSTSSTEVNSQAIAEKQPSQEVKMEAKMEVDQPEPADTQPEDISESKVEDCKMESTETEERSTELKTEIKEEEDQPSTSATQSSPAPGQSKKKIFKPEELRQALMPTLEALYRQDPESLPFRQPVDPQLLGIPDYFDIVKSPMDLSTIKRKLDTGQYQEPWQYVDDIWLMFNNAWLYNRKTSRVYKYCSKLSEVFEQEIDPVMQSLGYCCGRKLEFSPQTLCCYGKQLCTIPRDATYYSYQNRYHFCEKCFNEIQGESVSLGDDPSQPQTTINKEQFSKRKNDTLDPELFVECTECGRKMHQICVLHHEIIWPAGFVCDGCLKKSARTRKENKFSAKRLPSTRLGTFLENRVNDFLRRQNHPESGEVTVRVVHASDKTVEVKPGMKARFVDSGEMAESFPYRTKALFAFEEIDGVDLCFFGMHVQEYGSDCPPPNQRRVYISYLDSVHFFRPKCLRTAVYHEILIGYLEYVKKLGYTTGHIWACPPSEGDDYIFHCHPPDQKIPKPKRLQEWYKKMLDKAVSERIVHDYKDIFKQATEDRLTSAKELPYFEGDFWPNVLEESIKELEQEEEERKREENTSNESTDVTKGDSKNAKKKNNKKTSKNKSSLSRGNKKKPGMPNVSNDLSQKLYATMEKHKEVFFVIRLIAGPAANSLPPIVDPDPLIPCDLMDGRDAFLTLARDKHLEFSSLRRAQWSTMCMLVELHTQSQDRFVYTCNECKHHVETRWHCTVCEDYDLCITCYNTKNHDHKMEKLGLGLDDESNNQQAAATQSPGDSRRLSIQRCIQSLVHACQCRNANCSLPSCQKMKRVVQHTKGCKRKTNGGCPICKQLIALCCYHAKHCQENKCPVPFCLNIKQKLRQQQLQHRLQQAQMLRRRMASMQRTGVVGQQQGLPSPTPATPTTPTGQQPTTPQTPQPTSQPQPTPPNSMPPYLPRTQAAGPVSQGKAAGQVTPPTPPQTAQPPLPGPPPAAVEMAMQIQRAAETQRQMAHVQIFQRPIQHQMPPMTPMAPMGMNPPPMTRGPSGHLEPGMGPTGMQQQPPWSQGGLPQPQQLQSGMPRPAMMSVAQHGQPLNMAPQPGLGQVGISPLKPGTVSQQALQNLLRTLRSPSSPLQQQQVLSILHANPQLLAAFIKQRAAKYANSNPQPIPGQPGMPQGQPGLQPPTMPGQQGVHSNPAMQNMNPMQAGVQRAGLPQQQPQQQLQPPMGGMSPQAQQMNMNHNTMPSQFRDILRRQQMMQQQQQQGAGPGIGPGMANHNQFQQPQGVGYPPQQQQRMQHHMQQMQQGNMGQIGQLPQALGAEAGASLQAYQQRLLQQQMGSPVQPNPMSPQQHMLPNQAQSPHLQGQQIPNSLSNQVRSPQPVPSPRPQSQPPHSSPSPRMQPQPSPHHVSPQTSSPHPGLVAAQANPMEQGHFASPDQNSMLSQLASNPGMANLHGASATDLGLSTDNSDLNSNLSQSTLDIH

The target in experiment [2] is T2, ARG1 (arginase-1), endogenous (human (endogenous in HCT116 and RKO)) (UniProt P05089).
T2 sequence: T1 sequence
In words: co-IP; lysates of HCT116 and RKO cells treated with or without BHB (48 h) or BHB + A485; immunoprecipitated with anti-SLC3A2 or anti-ARG1 antibody.

For experiment [3], the target named is T2, ARG1 (arginase-1), endogenous (human (endogenous in HCT116 and RKO)). In words: co-IP; tumour tissue lysates (HCT116 xenografts in BALB/c nude mice) of the Saline and BHB groups, immunoprecipitated with anti-ARG1 antibody.
The target in another experiment is T3, Flag-ARG1^K39R (human) (UniProt P05089).
T3 sequence: T1 sequence with K39R
The experiment is described as follows: co-IP; HCT116 cells transfected with Flag-ARG1 WT, K39R or K313R for 24 h, then BHB for 48 h; lysates immunoprecipitated with anti-ARG1 antibody.

The target of experiment [4] is T1, Flag-ARG1 (full-length human arginase-1, pcDNA3.1-Flag) (human). Described as above.
The target of experiment [5] is T2, ARG1 (arginase-1), endogenous (human (endogenous in HCT116 and RKO)). The experiment is described as follows: co-IP; endogenous co-IP of ARG1 and P300 in HCT116 and RKO cells; IP lysis buffer, primary antibody and Protein A/G magnetic beads overnight at 4 °C.

Substitutions are numbered along the chain they refer to. Results are given in words; binding and its absence hold for the method and conditions named. Binding seen in cells or lysates may run through a third protein. Some binding calls cover weakened binding; strength is not graded here. For part of these data: Sequences can lack the tags named with a protein.

For the substance HA-P300 (from UniProt Q09472 1-2414), the binding result in experiment [1] was “binds”.

As for “solute carrier family 3 member 2 (SLC3A2), endogenous (from UniProt P08195 1-529)”, the binding entry (in experiment [2]; in experiment [3]; with Flag-ARG1^K39R (human); in experiment [4]) was “binds” in each case.

As for “P300, endogenous (from UniProt Q09472 1-2414)”, the binding entry in experiment [5] is listed as “binds”.

The values are drawn from publication PMC12520464.
